Some of the results follow. Shown are side measurements of this screen, not its main read-out; they come without a call. The list favours compounds with an active or inconclusive main result. The note in brackets gives the kind of curve behind each potency; many fits are weak.
Test: qHTS Assay to Find Inhibitors of Chronic Active B-Cell Receptor Signaling
Settings: ABC-DLBCL IkBa-CBG/CBR reporter, luminescence ratio (green luciferase fused to IkBa over red control in TMD8 lymphoma cells), 4 h
Outline: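 Cell line TMD8 (human ABC DLBCL), stably expressing tet-inducible CBG68-IkBa fusion and CBR; IMDM/0.5% FBS; cpd up to 46 uM; dox induction, 4 h, 37C/5% CO2; dual luminescence; green/red ratio; MG132 control.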

[1] = measured here: CBR red luminescence, cell number
[2] = measured here: IkBa-CBG green luminescence

Compound | AC50 [1] | AC50 [2]
CCCOc1ccc(Cc2c(O)nc(SC)[nH]c2=O)cc1C | 3.55 µM [falling, full curve] | –
CC(C)(C)NCC(O)COc1ccccc1C(C)(C)C (configuration not stated) | 17.8 µM [falling, single point] | –
C[C@@]12C(=O)N(c3cccc(Br)c3)C(=O)N1[C@H](c1ccc(Cl)cc1)[C@@H]1C(=O)N(C3CCCCC3)C(=O)[C@@H]12 | 4.47 µM [falling, full curve, poor fit] | –
CCC(=O)NC(c1ccccc1Cl)c1c(O)ccc2ccccc12 (configuration not stated) | 29.1 µM [falling, single point] | –
CCOC(=O)c1ccc(-c2ccc3oc(-c4ccsc4)cc(=O)c3c2)cc1F | 0.103 µM [falling, full curve, poor fit] | –
C=CCn1c(SCC(=O)Nc2cccc(S(N)(=O)=O)c2)nc2sc(C)c(C)c2c1=O | 0.82 µM [rising, full curve, poor fit] | 4.61 µM [falling, full curve]
COc1ccc(C(=O)NCCc2cn3ccccc3n2)cc1 | 2.82 µM [rising, partial curve, poor fit] | –
O=C(OCc1c(-c2ccccc2)ncc2ccccc12)c1cccc(Br)c1 | 9.2 µM [falling, partial curve] | –
Cc1cccc(C(=O)Nc2cccc(C(=O)N/N=C/c3ccccn3)c2)c1 | 14.1 µM [falling, single point] | –
CC(=O)OC(COc1cccc(C)c1)Cn1cnc2ccccc21 (configuration not stated) | 10 µM [falling, partial curve, poor fit] | –
N#C/C(=C\c1cn(Cc2ccccc2F)c2ccccc12)C(=O)NCc1ccco1 | 4.61 µM [rising, single point] | –
CC1(C)CC(=O)C=C(NCCN2CCN(C(=O)Nc3ccc(Cl)cc3)CC2)C1 | 7.94 µM [rising, partial curve] | –
CCC(C)NC(=O)c1c(N)n(/N=C/c2cccs2)c2nc3ccccc3nc12 (configuration not stated) | 4.47 µM [falling, partial curve, poor fit] | –
Cc1ccccc1NC(=O)c1ccc(CSc2ncccn2)cc1 | 0.316 µM [falling, full curve, poor fit] | –
O=[N+]([O-])c1c(NCCO)cc(N2CCC3(CC2)OCCO3)c2nonc12 | 18.4 µM [rising, partial curve, poor fit] | –
NS(=O)(=O)c1ccc(-c2ccc(/C=N/NC(=O)c3ccccc3O)o2)cc1 | 7.08 µM [falling, partial curve] | –
COc1ccccc1-c1ccc(Nc2cccc(C(F)(F)F)c2)nn1 | 2.31 µM [rising, full curve] | –
O=C(c1cc(-c2ccc(O)cc2)on1)N1CCCC1 | 12.6 µM [falling, partial curve, poor fit] | –
O=C(OCc1nc2ccc(Cl)cc2n1CCO)c1ccc2c(c1)OCO2 | 22.4 µM [falling, partial curve, poor fit] | 28.2 µM [rising, partial curve, poor fit]
CCOC(=O)c1ccc(NC(=O)c2ccccc2[N+](=O)[O-])cc1 | 10.3 µM [falling, partial curve, poor fit] | –
CCOC(=O)N1CCN(C(=O)c2c(-c3ccccc3)noc2C)CC1 | 7.31 µM [rising, single point] | –
CN(C)CCC(=O)c1cccc(Br)c1 | 35.5 µM [falling, single point] | –

Entries of single compounds from above. Order of values: AC50 [1] | AC50 [2]
O=[N+]([O-])c1c(NCCO)cc(N2CCC3(CC2)OCCO3)c2nonc12 as listed: 18.4 µM [rising, partial curve, poor fit] | –
CC(=O)OC(COc1cccc(C)c1)Cn1cnc2ccccc21 (configuration not stated) as listed: 10 µM [falling, partial curve, poor fit] | –
CCC(=O)NC(c1ccccc1Cl)c1c(O)ccc2ccccc12 (configuration not stated) as listed: 29.1 µM [falling, single point] | –

(list continues)

Compound | AC50 [1] | AC50 [2]
Cc1noc(C)c1C(=O)Nc1nnc(-c2ccccc2)s1 | 8.91 µM [falling, partial curve] | –
COCC(=O)Nc1cc(C(=O)Nc2ccccc2)ccc1Cl | 22.4 µM [falling, partial curve, poor fit] | –
COc1ccc(C(=O)Nc2ccc(NC(=O)c3ccccn3)cn2)cc1 | 3.98 µM [rising, full curve] | –
COC(=O)COc1cccc2c(=O)n(CC(=O)NCc3ccc(F)cc3)ccc12 | – | 6.31 µM [falling, partial curve, poor fit]
O=C(Nc1nnc(S(=O)(=O)N2CCOCC2)s1)c1ccccc1F | 5.62 µM [rising, partial curve, poor fit] | –
Nc1ccc(-c2nc3c(Cl)c(N)ccc3[nH]2)cc1 | 10 µM [falling, partial curve] | –
CCCn1c(CNC(=O)c2cccs2)nc2ccccc21 | 20.6 µM [falling, partial curve, poor fit] | –
COc1ccc(NC(=O)C/C(C)=N/NC(=O)C(=O)NC2CCCCC2)c(OC)c1 | 0.794 µM [falling, full curve] | –
NC(=O)C1CCCN(C(=O)c2cccc(NC(=O)c3cccs3)c2)C1 (configuration not stated) | 16.4 µM [falling, partial curve, poor fit] | –
Cc1ncc([N+](=O)[O-])n1CC(=O)N/N=C/c1ccccc1F | 2.51 µM [rising, full curve, poor fit] | –
C=CC[C@]12CCc3ccccc3C1N(c1ccc(C(=O)OCC)cc1)C2=O (some centres not stated) | 1.84 µM [falling, partial curve, poor fit] | –
O=C(Nc1cccc(/C=C/c2ccccn2)c1)c1cc(Cl)ccn1 | 3.55 µM [falling, partial curve] | –
O=C(NCCN1CCOCC1)c1cc(-c2ccc(Cl)c(Cl)c2)on1 | 35.5 µM [rising, single point] | –
CCCn1c(O)c(N=NC(=O)CNC(=O)c2cccnc2)c2ccccc21 | 5.62 µM [rising, single point] | –
O=C(NNC(=O)c1ccc(Cl)c([N+](=O)[O-])c1)c1ccncc1 | 25.1 µM [falling, single point] | –
Cc1ccccc1-c1nc2cc(Cl)ccc2o1 | 7.94 µM [rising, partial curve] | –
COc1ccc(-c2nn(-c3ccccc3)cc2/C=N/NC(=S)NC(C)C)cc1OC | 4.11 µM [rising, partial curve] | –
OCc1cc(C(O)CNCCCCCCOCCCCc2ccccc2)ccc1O (configuration not stated) | – | 0.251 µM [falling, full curve, poor fit]
Cc1ccc(C(=O)COC(=O)COc2ccccc2[N+](=O)[O-])s1 | 3.66 µM [rising, full curve, poor fit] | –
CCC1CCCCN1S(=O)(=O)c1ccc(S(=O)(=O)N2CCN(S(=O)(=O)CC)CC2)cc1 (configuration not stated) | 25.9 µM [rising, single point] | –
COc1cccc(CC(=O)Nc2ccc(-c3nc4ccccc4s3)cc2)c1 | 8.91 µM [rising, partial curve, poor fit] | –
COCCn1c(=O)[nH]c2cc(C(=O)Nc3cccc(F)c3)ccc2c1=O | 5.01 µM [falling, full curve] | –

Compound | AC50 [1] | AC50 [2]
Cc1nc(N)nc(N)c1/C=C/C(C)(C)c1ccc(Cl)cc1 | 11.2 µM [falling, partial curve, poor fit] | –
O=C(COc1ccc(Br)cc1)NCc1ccccn1 | 16.4 µM [rising, single point] | –
CCCN(C(=O)c1nc2nc(C)cc(C)n2n1)c1c(N)n(Cc2ccccc2)c(=O)[nH]c1=O | 25.9 µM [rising, single point] | –
Nn1c(COc2ccc(Cl)cc2)nc2ccccc2c1=O | 1.16 µM [rising, full curve, poor fit] | –
Fc1ccc(CSc2ncnc3scc(-c4ccccc4)c23)cc1 | 8.2 µM [rising, partial curve, poor fit] | –
COCCNC(=S)Nc1ccc(N2CCCCC2)cc1 | 15.8 µM [rising, single point] | –
C=CCN=C1S/C(=C/c2ccc([N+](=O)[O-])cc2)C(=O)N1CC=C | 20 µM [rising, partial curve, poor fit] | –
CNC(=S)N(CCc1c(C)[nH]c2ccc(C)cc12)Cc1cccs1 | 35.5 µM [falling, single point] | –
O=C(COC(=O)c1ccc(S(=O)(=O)N2CCOCC2)cc1)Nc1nc(-c2ccccc2)cs1 | 4.11 µM [rising, full curve, poor fit] | –
COc1ccc(CCNC(=O)c2cc(-c3cc(Cl)ccc3O)n[nH]2)cc1OC | 15.8 µM [falling, single point] | –
CC(O)C(NC(=O)OCc1ccccc1)C(=O)OCc1ccccc1 (configuration not stated) | 2.06 µM [rising, partial curve, poor fit] | –
Brc1ccc(-c2nc(-c3cccnc3)no2)o1 | 1.58 µM [rising, full curve, poor fit] | –
CCCOC(=O)c1ccc(NC(=O)CCOc2ccccc2)cc1 | – | 0.58 µM [rising, full curve, poor fit]
C=CCN1CCN(C(c2ccccc2)c2nnnn2CCC(C)C)CC1 (configuration not stated) | 1.58 µM [falling, partial curve, poor fit] | –
CC1CCCN(CCOCCOc2ccccc2-c2ccccc2)C1 (configuration not stated) | 29.1 µM [falling, single point] | –
COc1cc(/C=C2\SC(=S)N(NS(=O)(=O)c3ccccc3)C2=O)cc(OC)c1OC | 12.6 µM [falling, single point] | –
O=C(CSCc1cccc(Cl)c1)N1CCN(Cc2ccc3c(c2)OCO3)CC1 | 23.1 µM [falling, single point] | –
CCOCC(=O)Nc1nc2ccc(OC)cc2s1 | 3.66 µM [falling, full curve, poor fit] | –
O=Cc1cc2ccccc2nc1SCCCF | 15.8 µM [rising, partial curve] | 22.4 µM [falling, single point]
O=[N+]([O-])c1cccc(S(=O)(=O)[N-]c2nc3ccccc3nc2-n2cc[n+](Cc3ccccc3)c2)c1 | 3.98 µM [falling, single point] | –

Reference: PubChem BioAssay AID493014 (National Center for Advancing Translational Sciences (NCATS), 2011)
